The assay has as its target T1, E-selectin Ig chimera (human) (UniProt P16581).
T1 sequence (looked up): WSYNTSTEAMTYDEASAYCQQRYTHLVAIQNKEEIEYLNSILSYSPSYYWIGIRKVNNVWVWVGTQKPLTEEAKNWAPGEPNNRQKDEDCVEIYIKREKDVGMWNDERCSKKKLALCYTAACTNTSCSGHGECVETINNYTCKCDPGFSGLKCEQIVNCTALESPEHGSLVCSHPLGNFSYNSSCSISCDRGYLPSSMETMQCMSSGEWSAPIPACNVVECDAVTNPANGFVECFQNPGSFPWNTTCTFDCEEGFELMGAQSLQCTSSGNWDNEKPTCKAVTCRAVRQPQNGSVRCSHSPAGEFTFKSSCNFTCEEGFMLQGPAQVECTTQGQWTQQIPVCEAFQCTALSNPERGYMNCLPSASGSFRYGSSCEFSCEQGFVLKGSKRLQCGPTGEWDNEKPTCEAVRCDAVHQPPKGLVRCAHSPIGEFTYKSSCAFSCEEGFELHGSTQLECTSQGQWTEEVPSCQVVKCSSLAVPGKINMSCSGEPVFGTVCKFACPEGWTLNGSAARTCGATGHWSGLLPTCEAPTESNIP
Nature of the assay: adhesion of 51Cr-labelled COS cells (PSGL-1 + FTVII, 10 mM NaClO3) to immobilized E-selectin Ig.

These are yes or no findings as the source states them, for the method shown. Some entries that bind do so weakly or less than the wild type.

Data on 1 molecule can be found in US7399847 (GENERAL HOSPITAL, dated 2008).

B1: PSGL-1-flu + FTVII, on COS cells grown in sulfate-free medium with 10 mM sodium chlorate (ligand, UniProt Q14242 42-412, looked up, not shown: small tags and cut ends)
chain: QATEYEYLDYDFLPETEPPEMLRNSTDTTPLTGPGTPESTTVEPAARRSTGLDAGGAVTELTTELANMGNLSTDSAAMEIQTTQPAATEAQTTQPVPTEAQTTPLAATEAQTTRLTATEAQTTPLAATEAQTTPPAATEAQTTQPTGLEAQTTAPAAMEAQTTAPAAMEAQTTPPAAMEAQTTQTTAMEAQTTAPEATEAQTTQPTATEAQTTPLAAMEALSTEPSATEALSMEPTTKRGLFIPFSVSSVTHKGIPMAASNLSVNYPVGAPDHISVKQCLLAILILALVATIFFVCTVVLAVRLSRKGHMYPVRNYSPTEMVCISSLLPDGGEGPSATANGGLSKAKSPGLTPEPREDREGDDLTLHSFLP
modifications: sulfation inhibited by 10 mM NaClO3; sLe^x present
In the case of B1, the binding result is on record as “binds”.
